According to article doi:10.1101/2025.08.01.668163:
No constants are given. Whether binding was seen depends on the method and setting. In cells and extracts the contact can be indirect. Some entries that bind do so weakly or less than the wild type. For some of these results: Sequences can lack the tags named with a protein.

Chains of the proteins cited; added tags and fusions are not shown. Lines headed by an entry give the natural chain unless they say otherwise; changes in a name come on top.
UniProt Q17RN3, whole entry: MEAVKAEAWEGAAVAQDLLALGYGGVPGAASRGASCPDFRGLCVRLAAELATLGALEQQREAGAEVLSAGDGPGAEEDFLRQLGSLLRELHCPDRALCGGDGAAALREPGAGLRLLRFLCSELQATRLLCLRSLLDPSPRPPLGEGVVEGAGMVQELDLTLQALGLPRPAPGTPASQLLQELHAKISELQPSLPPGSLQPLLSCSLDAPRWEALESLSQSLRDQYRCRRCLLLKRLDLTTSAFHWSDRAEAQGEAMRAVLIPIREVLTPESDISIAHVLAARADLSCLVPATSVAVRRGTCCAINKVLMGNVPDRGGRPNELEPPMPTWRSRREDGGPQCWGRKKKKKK

Experiments:
Assay in all cases: co-IP
FLAG-HA-RTCB (human) = molecular target: T1, FLAG-HA-RTCB (human) (UniProt Q9Y3I0)
T1 sequence: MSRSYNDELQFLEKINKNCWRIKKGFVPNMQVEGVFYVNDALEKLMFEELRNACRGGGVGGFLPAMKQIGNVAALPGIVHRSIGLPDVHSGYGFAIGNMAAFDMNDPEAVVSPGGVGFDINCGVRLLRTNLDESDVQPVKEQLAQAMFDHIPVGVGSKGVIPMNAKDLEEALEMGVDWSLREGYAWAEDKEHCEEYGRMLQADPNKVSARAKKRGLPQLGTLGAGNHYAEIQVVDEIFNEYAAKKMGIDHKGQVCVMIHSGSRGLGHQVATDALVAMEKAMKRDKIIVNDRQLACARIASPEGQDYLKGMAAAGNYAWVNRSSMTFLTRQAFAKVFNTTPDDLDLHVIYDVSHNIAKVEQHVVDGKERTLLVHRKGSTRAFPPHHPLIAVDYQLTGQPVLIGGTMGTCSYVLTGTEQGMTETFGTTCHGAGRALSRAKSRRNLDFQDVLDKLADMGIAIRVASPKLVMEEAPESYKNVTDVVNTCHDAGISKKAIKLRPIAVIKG

[1] = molecular target: C-terminally FLAG-HA-tagged FAM98A(Δ336-518) (human) (UniProt Q8NCA5)
[2] = molecular target: C-terminally FLAG-HA-tagged FAM98C (human) (UniProt Q17RN3)
[3] = molecular target: N-terminally FLAG-HA-tagged FAM98A(Δ336-518) (human) (UniProt Q8NCA5)
[4] = molecular target: N-terminally FLAG-HA-tagged, full-length FAM98A (human) (UniProt Q8NCA5)
[5] = molecular target: N-terminally FLAG-HA-tagged, full-length FAM98C (human) (UniProt Q17RN3)

Molecule: FAM98A (from UniProt Q8NCA5 1-518)
- binding (FLAG-HA-RTCB (human)): binds

Molecule: FAM98C (from UniProt Q17RN3 1-349)
- binding (FLAG-HA-RTCB (human)): binds

B1: RTCB (enzyme, UniProt Q9Y3I0 1-505)
chain: MSRSYNDELQFLEKINKNCWRIKKGFVPNMQVEGVFYVNDALEKLMFEELRNACRGGGVGGFLPAMKQIGNVAALPGIVHRSIGLPDVHSGYGFAIGNMAAFDMNDPEAVVSPGGVGFDINCGVRLLRTNLDESDVQPVKEQLAQAMFDHIPVGVGSKGVIPMNAKDLEEALEMGVDWSLREGYAWAEDKEHCEEYGRMLQADPNKVSARAKKRGLPQLGTLGAGNHYAEIQVVDEIFNEYAAKKMGIDHKGQVCVMIHSGSRGLGHQVATDALVAMEKAMKRDKIIVNDRQLACARIASPEGQDYLKGMAAAGNYAWVNRSSMTFLTRQAFAKVFNTTPDDLDLHVIYDVSHNIAKVEQHVVDGKERTLLVHRKGSTRAFPPHHPLIAVDYQLTGQPVLIGGTMGTCSYVLTGTEQGMTETFGTTCHGAGRALSRAKSRRNLDFQDVLDKLADMGIAIRVASPKLVMEEAPESYKNVTDVVNTCHDAGISKKAIKLRPIAVIKG
- binding [1]: binds
- binding [2]: binds
- binding [3]: binds
- binding [4]: binds
- binding [5]: binds

B2: DDX1 (enzyme, UniProt Q92499 1-740)
chain: MAAFSEMGVMPEIAQAVEEMDWLLPTDIQAESIPLILGGGDVLMAAETGSGKTGAFSIPVIQIVYETLKDQQEGKKGKTTIKTGASVLNKWQMNPYDRGSAFAIGSDGLCCQSREVKEWHGCRATKGLMKGKHYYEVSCHDQGLCRVGWSTMQASLDLGTDKFGFGFGGTGKKSHNKQFDNYGEEFTMHDTIGCYLDIDKGHVKFSKNGKDLGLAFEIPPHMKNQALFPACVLKNAELKFNFGEEEFKFPPKDGFVALSKAPDGYIVKSQHSGNAQVTQTKFLPNAPKALIVEPSRELAEQTLNNIKQFKKYIDNPKLRELLIIGGVAARDQLSVLENGVDIVVGTPGRLDDLVSTGKLNLSQVRFLVLDEADGLLSQGYSDFINRMHNQIPQVTSDGKRLQVIVCSATLHSFDVKKLSEKIMHFPTWVDLKGEDSVPDTVHHVVVPVNPKTDRLWERLGKSHIRTDDVHAKDNTRPGANSPEMWSEAIKILKGEYAVRAIKEHKMDQAIIFCRTKIDCDNLEQYFIQQGGGPDKKGHQFSCVCLHGDRKPHERKQNLERFKKGDVRFLICTDVAARGIDIHGVPYVINVTLPDEKQNYVHRIGRVGRAERMGLAISLVATEKEKVWYHVCSSRGKGCYNTRLKEDGGCTIWYNEMQLLSEIEEHLNCTISQVEPDIKVPVDEFDGKVTYGQKRAAGGGSYKGHVDILAPTVQELAALEKEAQTSFLHLGYLPNQLFRTF
- binding [1]: binds
- binding [2]: binds
- binding [3]: binds
- binding [4]: binds
- binding [5]: binds

B3: CGI-99 (protein, UniProt Q9Y224 1-244)
chain: MFRRKLTALDYHNPAGFNCKDETEFRNFIVWLEDQKIRHYKIEDRGNLRNIHSSDWPKFFEKYLRDVNCPFKIQDRQEAIDWLLGLAVRLEYGDNAEKYKDLVPDNSKTADNATKNAEPLINLDVNNPDFKAGVMALANLLQIQRHDDYLVMLKAIRILVQERLTQDAVAKANQTKEGLPVALDKHILGFDTGDAVLNEAAQILRLLHIEELRELQTKINEAIVAVQAIIADPKTDHRLGKVGR
- binding [1]: binds
- binding [2]: binds
- binding [3]: binds
- binding [4]: binds
- binding [5]: binds

B4: Ashwin (protein, UniProt Q9BVC5 1-232)
chain: MAGDVGGRSCTDSELLLHPELLSQEFLLLTLEQKNIAVETDVRVNKDSLTDLYVQHAIPLPQRDLPKNRWGKMMEKKREQHEIKNETKRSSTVDGLRKRPLIVFDGSSTSTSIKVKKTENGDNDRLKPPPQASFTSNAFRKLSNSSSSVSPLILSSNLPVNNKTEHNNNDAKQNHDLTHRKSPSGPVKSPPLSPVGTTPVKLKRAAPKEEAEAMNNLKPPQAKRKIQHVTWP
- binding [1]: no binding
- binding [2]: no binding
- binding [3]: no binding
- binding [4]: no binding
- binding [5]: no binding
